Results published in patent US20240376204A1.

Protein sequences, listed by entry. Tags and fused reporters are not part of them. Lines headed by an entry give the natural chain unless they say otherwise; changes in a name come on top.
UniProt Q6DKI7: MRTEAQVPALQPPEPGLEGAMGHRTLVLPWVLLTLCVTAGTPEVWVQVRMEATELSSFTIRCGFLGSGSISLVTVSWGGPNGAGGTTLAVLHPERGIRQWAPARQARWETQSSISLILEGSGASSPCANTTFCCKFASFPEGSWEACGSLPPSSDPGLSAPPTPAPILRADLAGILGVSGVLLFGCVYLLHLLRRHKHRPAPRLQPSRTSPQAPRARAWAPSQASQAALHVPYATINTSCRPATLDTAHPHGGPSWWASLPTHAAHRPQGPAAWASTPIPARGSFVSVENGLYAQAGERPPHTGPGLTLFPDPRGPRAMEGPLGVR

Assays:
[1] = target: Biotinylated monkey PD-1 protein (Avitag-His Tag) (cynomolgus monkey); assay: yeast display, flow cytometry sorting with biotinylated monkey PD-1
[2] = target: his-tagged human PVRIG (h-PVRIG-his) recombinant protein (human) (UniProt Q6DKI7); assay: BLI (Fortebio)
[3] = target: his-tagged human PVRIG (h-PVRIG-his) recombinant protein (human) (UniProt Q6DKI7); assay: ELISA, plate coated with PVRIG protein

binding [1]	binding [2]	binding [3]	Binder
binds	–	–	A6 (VHH, variable region) (VHH) VHH: EVQLVESGGGLVQAGGSLRLSCAVSGRTFSSAAMGWFRQAPGKEREFVAAISWSFGSTYYADSVKGRFTISRDNAKNTVYLQMNSLKPEDTAVYYCAADPSIETMGGGWDYWGQGTQVTVSS
–	binds	binds	Tab5 (antibody, human IgG4 S228P, kappa, F234A L235A, V domains shown) VH: EVQLVESGGGVVKPGGSLRLSCAASGFTFGTSSMNWVRQAPGKGLEWVAVISFDGTEIHYADSVKGRFTISRDNSKSTVFLQMNSLRPDDTALYYCAKGSGNIYFYSGMDVWGQGTTVTVSS VL: DIQMTQSPSTLSASVGDRVTITCRAGQSISGWLAWFQQKPGKAPNLLIYETSTLESGVPSRFSGSGSGTEYTLTISSLQPDDFATYYCQQYYSYPLTFGQGTKVEIKR
–	binds	–	30H2 (Fc fusion, not shown: a dimerising Fc or GST) EVQLVESGGGLVQPGGSLRLSCAASGFTFSGDCMGWFRQAPGKGLDEGVATIDNAGRIKYADSVKGRFTISRDNAKNSLYLQMNSLRAEDTAVYYCAAGWTFGGQCSPADWGQGTQVTVSS
–	binds	–	30H3 (Fc fusion, not shown: a dimerising Fc or GST) EVQLVESGGGLVQPGGSLRLSCAASGYSYSGDCMGWFRQAPGKGLDEGVATIDNAGRIKYADSVKGRFTISRDNAKNSLYLQMNSLRAEDTAVYYCAAGWTFGGQCSPADWGQGTQVTVSS
binds	–	–	A17 (VHH, variable region) (VHH) VHH: EVQVVESGGGLVQPGGSLRLSCVASGLTFSDYSMSWYRQAPGKERELVAIISGSGVIAHYVDSVKGRFTISRDNAKSTVYLQMVSLKPEDRGVYYCRAVSDWDDYWGQGTQVTVSS
–	binds	–	151H7 (Fc fusion, not shown: a dimerising Fc or GST) HVQLVESGGGLVQPGGSLRLSCVASASGFTYRPYCMAWFRQAPGKEREAVAGIDIFGGTTYADSVKGRFTASRDNAGFSLYLQMNSLRAEDTAVYYCAAGDSPDGRCPPLGQGLNYWGQGTMVTVSS

No constants are given. Whether binding was seen depends on the method and setting. Binding can be weak; no strength is given.
